Test results taken from the M2OR odorant receptor database.
The list shows a part of the results, in another mix than the full data. Calls are pooled over several reports, among them a noisy single-well screen. The list shows a part of the results. This is one part of the list.

Assays:
Conditions in all cases: stereoisomer not certain
[1] = molecular target: T1, OR5AN1 (Homo sapiens) (UniProt Q8NGI8)
T1 sequence (whole entry): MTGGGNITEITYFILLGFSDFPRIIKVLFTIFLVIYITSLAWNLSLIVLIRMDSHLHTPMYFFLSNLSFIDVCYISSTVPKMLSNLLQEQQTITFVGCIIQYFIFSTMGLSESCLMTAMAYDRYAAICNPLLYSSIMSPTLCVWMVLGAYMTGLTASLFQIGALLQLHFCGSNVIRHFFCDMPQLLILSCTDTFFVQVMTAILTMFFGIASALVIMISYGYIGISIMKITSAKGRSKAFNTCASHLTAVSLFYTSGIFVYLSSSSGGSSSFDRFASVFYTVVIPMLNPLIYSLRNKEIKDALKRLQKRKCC
Summary of the method: (§1)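 Values were gathered from published papers (main text and supplementary material), with extra details requested from the original authors when needed, and checked for typos and inconsistencies. Each receptor–molecule pair is called responsive (active) if the original authors judged the measured signal statistically different from baseline, and non-responsive (inactive) otherwise. Assay methods varied by source, often transient mammalian cell-line luciferase assays. Recorded details include cell line, G-protein, co-transfected protein and tags.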

[2] = molecular target: T2, OR5AR1 (Homo sapiens) (UniProt Q8NGP9)
T2 sequence (whole entry): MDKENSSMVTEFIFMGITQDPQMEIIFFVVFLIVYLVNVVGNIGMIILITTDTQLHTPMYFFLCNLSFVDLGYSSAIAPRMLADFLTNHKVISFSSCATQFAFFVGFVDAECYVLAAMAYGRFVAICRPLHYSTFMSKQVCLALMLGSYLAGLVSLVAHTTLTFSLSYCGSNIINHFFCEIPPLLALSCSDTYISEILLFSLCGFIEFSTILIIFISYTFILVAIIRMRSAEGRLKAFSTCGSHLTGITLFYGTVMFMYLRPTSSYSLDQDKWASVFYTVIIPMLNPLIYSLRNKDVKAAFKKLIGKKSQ
Summary of the method: as §1

[3] = molecular target: T3, OR5AS1 (Homo sapiens) (UniProt Q8N127)
T3 sequence (whole entry): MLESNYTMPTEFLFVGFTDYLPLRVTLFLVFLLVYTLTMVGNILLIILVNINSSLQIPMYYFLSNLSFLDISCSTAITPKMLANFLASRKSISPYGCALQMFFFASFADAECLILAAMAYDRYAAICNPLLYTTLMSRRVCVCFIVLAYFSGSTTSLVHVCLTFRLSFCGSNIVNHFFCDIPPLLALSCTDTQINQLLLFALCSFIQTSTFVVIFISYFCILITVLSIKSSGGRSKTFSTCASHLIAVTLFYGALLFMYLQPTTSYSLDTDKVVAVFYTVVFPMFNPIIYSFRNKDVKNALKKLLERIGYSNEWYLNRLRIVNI
Summary of the method: as §1

[4] = molecular target: T4, OR5AU1 (Homo sapiens) (UniProt Q8NGC0)
T4 sequence (whole entry): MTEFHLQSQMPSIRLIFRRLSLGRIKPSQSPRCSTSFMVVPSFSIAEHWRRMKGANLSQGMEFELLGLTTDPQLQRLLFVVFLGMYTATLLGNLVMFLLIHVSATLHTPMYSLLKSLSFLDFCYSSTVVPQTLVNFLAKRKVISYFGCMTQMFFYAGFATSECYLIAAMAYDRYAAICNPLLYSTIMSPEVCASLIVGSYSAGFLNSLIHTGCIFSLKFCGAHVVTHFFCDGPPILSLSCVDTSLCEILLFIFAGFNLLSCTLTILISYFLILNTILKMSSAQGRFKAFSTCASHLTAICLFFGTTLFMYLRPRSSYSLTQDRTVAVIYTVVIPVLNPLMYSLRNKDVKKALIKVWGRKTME
Summary of the method: as §1

[5] = molecular target: T5, OR5B17 (Homo sapiens) (UniProt Q8NGF7)
T5 sequence (whole entry): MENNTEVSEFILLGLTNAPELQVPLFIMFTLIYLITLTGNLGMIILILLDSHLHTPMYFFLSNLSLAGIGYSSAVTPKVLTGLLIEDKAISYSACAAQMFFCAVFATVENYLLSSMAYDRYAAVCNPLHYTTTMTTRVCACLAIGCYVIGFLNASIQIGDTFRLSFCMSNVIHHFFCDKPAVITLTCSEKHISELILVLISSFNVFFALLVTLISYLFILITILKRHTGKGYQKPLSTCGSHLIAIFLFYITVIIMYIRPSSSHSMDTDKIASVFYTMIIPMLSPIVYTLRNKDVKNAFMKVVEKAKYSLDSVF
Summary of the method: as §1

[6] = test system: T6, OR5B2
T6 sequence (whole entry): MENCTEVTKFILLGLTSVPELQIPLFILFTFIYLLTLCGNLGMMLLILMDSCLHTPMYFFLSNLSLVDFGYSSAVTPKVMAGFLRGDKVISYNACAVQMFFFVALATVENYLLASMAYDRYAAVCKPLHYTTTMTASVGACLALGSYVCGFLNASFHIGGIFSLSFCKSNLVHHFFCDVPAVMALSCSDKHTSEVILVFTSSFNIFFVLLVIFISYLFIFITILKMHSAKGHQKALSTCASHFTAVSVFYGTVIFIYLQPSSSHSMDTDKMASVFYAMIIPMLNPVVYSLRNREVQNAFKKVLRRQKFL
Summary of the method: as §1

[7] = molecular target: T7, OR5B3 (Homo sapiens) (UniProt Q8NH48)
T7 sequence (whole entry): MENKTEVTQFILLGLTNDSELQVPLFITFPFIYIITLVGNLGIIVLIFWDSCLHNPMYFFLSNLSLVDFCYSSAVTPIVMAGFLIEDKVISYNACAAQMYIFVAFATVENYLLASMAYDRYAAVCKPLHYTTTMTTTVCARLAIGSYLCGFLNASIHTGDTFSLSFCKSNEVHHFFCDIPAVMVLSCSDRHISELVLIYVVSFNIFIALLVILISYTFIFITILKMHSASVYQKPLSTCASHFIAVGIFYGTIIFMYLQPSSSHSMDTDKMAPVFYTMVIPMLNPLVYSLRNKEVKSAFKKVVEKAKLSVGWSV
Summary of the method: as §1

[8] = test system: T8, OR5BC
T8 sequence (whole entry): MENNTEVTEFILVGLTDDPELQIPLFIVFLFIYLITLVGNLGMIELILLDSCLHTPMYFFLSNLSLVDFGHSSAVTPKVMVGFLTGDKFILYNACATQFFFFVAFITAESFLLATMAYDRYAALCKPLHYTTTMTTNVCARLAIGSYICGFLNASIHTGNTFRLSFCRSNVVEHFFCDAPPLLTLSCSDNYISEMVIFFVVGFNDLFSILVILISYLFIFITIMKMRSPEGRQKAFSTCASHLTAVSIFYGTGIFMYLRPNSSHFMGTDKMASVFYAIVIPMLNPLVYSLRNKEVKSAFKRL
Summary of the method: as §1

[9] = test system: T9, OR5BL
T9 sequence (whole entry): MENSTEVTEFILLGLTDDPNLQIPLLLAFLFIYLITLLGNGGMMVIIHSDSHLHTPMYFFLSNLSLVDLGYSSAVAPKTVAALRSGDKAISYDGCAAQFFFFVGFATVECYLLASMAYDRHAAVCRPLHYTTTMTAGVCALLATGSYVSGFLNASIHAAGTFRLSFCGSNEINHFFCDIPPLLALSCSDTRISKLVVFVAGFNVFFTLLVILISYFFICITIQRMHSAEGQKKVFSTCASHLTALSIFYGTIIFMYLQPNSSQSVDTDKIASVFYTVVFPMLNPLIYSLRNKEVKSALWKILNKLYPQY
Summary of the method: as §1

[10] = molecular target: T10, OR5C1 (Homo sapiens) (UniProt Q8NGR4)
T10 sequence (whole entry): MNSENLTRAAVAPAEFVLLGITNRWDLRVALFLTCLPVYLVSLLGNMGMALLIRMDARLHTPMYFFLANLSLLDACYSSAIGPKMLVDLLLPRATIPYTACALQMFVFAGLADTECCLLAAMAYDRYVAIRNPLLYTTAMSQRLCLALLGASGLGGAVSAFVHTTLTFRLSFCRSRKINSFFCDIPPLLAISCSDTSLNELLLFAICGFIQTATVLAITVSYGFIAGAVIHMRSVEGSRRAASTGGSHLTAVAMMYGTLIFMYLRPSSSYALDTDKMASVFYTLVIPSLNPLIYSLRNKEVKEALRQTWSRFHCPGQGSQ
Summary of the method: as §1

Measured: odorant receptor agonist call

CS
inactive: [1] | [2] | [3] | [4] | [5] | [6] | [7] | [8] | [9] | [10]
